The values below are quoted from earlier work in patent US20130034497A1, “IODINE-LABELED HOMOGLUTAMIC ACID AND GLUTAMIC ACID DERIVATIVES” (PIRAMAL IMAGING SA, priority 2009, published 2013).

SMILES strings stand for the structures.

The conditions of the series: oncology overall; cited from earlier work.

On to `OC[C@H]1OC(O)[C@H]([18F])[C@@H](O)[C@@H]1O` (some centres unmarked) [FDG, 2-[^18 F]-fluoro-deoxyglucose], for which the sensitivity of diagnosis is given as 84% and the specificity of diagnosis is reported as 88%.
